Values of other authors as cited in US20150157672A1, “KITS AND METHODS FOR SUSTAINED WEIGHT LOSS” (PHYTOLOGY LABS, INC., priority 2013, published 2015).
For some assays here: For at least one compound, name, drawing or mass did not settle the structure. Some of these results come from one statement about several compounds together.

Columns and labels:
[1] = dose-dependent; cited from earlier work
[2] = tested on: beta-adrenergic desensitization; settings: in vitro; not lesser concentrations; cited from earlier work

Cn1c(=O)c2c(ncn2C)n(C)c1=O [caffeine]
stimulation of daily energy expenditure [1]: 0.10-0.13 Kcal/mg administered

C=C[C@@]1(C)CC(=O)[C@]2(O)[C@@]3(C)[C@@H](O)CCC(C)(C)[C@@H]3[C@H](O)[C@H](OC(C)=O)[C@@]2(C)O1 [forskolin]
concentration able to rescue beta-adrenergic desensitization [2]: 1 µM
